# Patent US20070202487A1, “Assay for phospholipidosis” (Cytokinetics, Inc., A Delaware Corporation, priority 2006, published 2007)
# Test system: hepatocytes
# Procedure: As described further below, in certain embodiments, the number of bright and/or punctate regions in the lysosomal marker image is used as an indication of phospholipidosis.
# An exemplary procedure for preparing hepatocyte cultures will now be described. Specifically, the procedure involves the use of primary rat hepatocytes as follows:
# 11. Twenty three thousand cells/well are plated in a 96 flat well plate pre-coated with collagen I (BD Biosciences, San Jose, Calif. or CellzDirect, Tucson, Ariz.). The plates are incubated at 37° C./5% CO2 for two hours. At the end of the two hour incubation, plating medium is aspirated and cold Hepatozyme medium containing 250 micrograms/ml of Matrigel (BD Biosciences) is added, and the plates are incubated overnight.
# The following example is a procedure for fixing and staining primary rat hepatocytes to visualize nuclei, lysotracker, and Alexa 647 nm succinimidyl ester reagent (A647SE). A647SE is used to segment individual hepatocytes within an image. • 1) At 24 hr after compound addition to cells, 50 ul of Hepatozyme medium (prewarmed to 37° C.) containing 187.5 nM of lysotracker dye is added to each well. […]
smiles,measurement,value
"CCCCc1oc2ccccc2c1C(=O)c1cc(I)c(OCCN(CC)CC)c(I)c1 [aniodarone, amiodarone]",proportion of bright/punctate cells (LysoTracker images),increase
